PubChem BioAssay AID1671195 | Yale University – 2021

Test: 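Regulators of LDL receptor activity judged by labelled LDL uptake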 (primary screen)
Cell system: human Huh7 hepatoma cells
Reagent: siRNA pool against human genes, 18 nM
Timing: about 2 to 2.5 days of knockdown, then 8 h LDL uptake
Challenge: DiI-labelled LDL at 30 µg/ml for 8 h, in lipoprotein-deficient serum medium
Detection: 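Per-cell DiI-LDL intensity by automated imaging; well means scaled to the plate median and given as a robust z-score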
Direction: robust z-score: higher = more LDL uptake after knockdown
Hit rule: 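Active when two or more replicates show a robust z-score above 2 or below -2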
Shown is an unselected part of about 22,000 reagents tested. About 1,510 of all reagents (6.9%) were called active. 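Active includes knockdowns raising or lowering LDL uptake; positive z-scores mean more uptake, negative mean less.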 A number with no mark means an inactive call. Reagents against one gene are numbered here. Reagent sequences are not shown.

gene,reagent,"robust z-score, replicate 1","robust z-score, replicate 2","robust z-score, replicate 3"
OR51B2,1,0.347,-0.522,-0.0508
TRIM31,1,1.87,1.93,1.71
OCIAD1,1,-1.04,-1.19,-0.777
SATB1,1,0.484,0.672,0.0368
ADK,1,0.0399,0.518,-0.3
MARCHF6,1,-0.553,1.07,0.0814
SPOUT1,1,2.84,1.01,-0.935
DPAGT1,1,1.29,1.1,0.991
RECK,1,-0.983,0.0367,-1.16
LOC392226,1,2.53 (active),2.79,2.42
ECHDC2,1,1.06,0.96,1.74
PLCB1,1,-2.26 (active),-2.06,-1.63
MESP1,1,1.04,-1.25,0.477
ROM1,1,-0.631,-0.17,-0.14
B2M,1,-1.79,-1.34,-1.06
TCTA,1,1.67,1.11,1.46
MEST,1,-0.601,-0.216,-0.216
SUV39H2,1,0.813,0.134,0.685
SLC6A19,1,0.221,0.732,0.295
LOC390426 (retired record),1,-1.56,-1.13,-1.35
CFAP44,1,-1.6,0.0744,0.656
GUCY1A2,1,1.73,0.293,0.806
IFNW1,1,-0.965,-1.14,-0.989
TYROBP,1,1.24,0.259,-0.545
SMTNL2,1,-0.0107,-0.0581,-0.305
THAP11,1,2.4 (active),2,2.13
THAP4,1,1.07,-0.0989,0.862
YIPF1,1,-0.503,-0.00636,0.32
PLEKHG5,1,-1.66,-1.77,-1.7
PMCH,1,-0.682,-0.437,-0.0226
CCDC43,1,1.32,1.72,2.3
STIMATE,1,0.062,-0.0196,0.142
KEL,1,-0.14,-0.543,-0.54
BAK1,1,-0.368,-0.324,-1.08
MCOLN3,1,2.4 (active),1.22,1.93
PLIN2,1,0.944,1.18,1.28
MTRES1,1,2.03,0.578,-1.98
FGA,1,-0.163,-0.979,0.587
CHRD,1,1.51,-0.0377,0.616
CA3,1,0.578,1.11,0.879
LOC388897 (retired record),1,-0.704,-0.684,-0.995
PDILT,1,-0.852,-1.38,-1
CALML6,1,-0.748,-0.634,-0.32
TET3,1,1.31,0.146,0.235
HGH1,1,-0.765,1.46,1.22
MRTFB,1,0.0264,-0.0449,-0.183
CCDC116,1,0.506,0.9,0.329
ZFYVE19,1,-0.572,-0.655,-0.0934
FAM170A,1,4.45 (active),4.33,4.59
LINC00469,1,0.012,-0.242,-0.284
LOC389358 (retired record),1,0.598,1.33,0.828
SGTB,1,-0.2,-0.977,0.305
LOC389908 (retired record),1,0.0493,0.401,0.233
PSMB7,1,0.317,0.162,-0.0931
MAGED4B,1,-0.659,0.424,0.319
TSPAN17,1,-0.47,-0.89,-0.0319
CUX2,1,0.743,-0.105,1.02
SPATA32,1,-0.691,-0.828,-0.531
SLC18A1,1,-0.861,-0.676,-0.75
LOC387830 (retired record),1,-0.494,-0.268,-0.127
KRT6B,1,3.44 (active),2.42,3.99
LOC440988 (retired record),1,0.819,0.542,0.151
PIK3R1,1,-1.48,-2.08,-1.68
C20orf204,1,0.175,-0.303,0.0243
LOC343384 (retired record),1,3.07,1.48,1.86
BCO1,1,-1.86,-1.73,-2.03
POU6F2,1,0.823,0.952,1.03
RPL31P28,1,-0.259,-0.449,-0.293
PARD6A,1,0.849,-0.182,1.26
PLA1A,1,-1.77,-1.71,-1.95
RIOK3,1,-0.473,-0.0155,0.318
LST1,1,0.0328,-0.316,0.488
SYVN1,1,-0.193,-0.0779,-0.0568
BSX,1,-1.53,-1.17,-1.42
GYPA,1,0.341,0.659,0.945
DCANP1,1,-0.579,-1.02,-0.00792
SPATA31E1,1,0.48,0.389,0.117
PSEN1,1,-1.55,-1.63,-0.777
ACHE,1,-2.68,0.425,-0.188
ACCS,1,0.568,0.235,-0.106
MPP7,1,0.0161,-0.373,-0.648
MKS1,1,2.6 (active),3.34,2.8
DUSP8,1,-0.242,-0.201,0.232
LGSN,1,-0.618,-0.605,-0.388
LDLRAD3,1,-2.2,-1.73,-1.81
CFAP47,1,0.831,0.601,0.969
CFAP47,2,-0.604,-0.364,-0.389

An excerpt of the results above, as a working copy:
gene,reagent,"robust z-score, replicate 1","robust z-score, replicate 2","robust z-score, replicate 3"
MESP1,1,1.04,-1.25,0.477
ROM1,1,-0.631,-0.17,-0.14
B2M,1,-1.79,-1.34,-1.06
TCTA,1,1.67,1.11,1.46
MEST,1,-0.601,-0.216,-0.216
SUV39H2,1,0.813,0.134,0.685
SLC6A19,1,0.221,0.732,0.295
LOC390426 (retired record),1,-1.56,-1.13,-1.35
CFAP44,1,-1.6,0.0744,0.656
GUCY1A2,1,1.73,0.293,0.806
IFNW1,1,-0.965,-1.14,-0.989
TYROBP,1,1.24,0.259,-0.545
SMTNL2,1,-0.0107,-0.0581,-0.305
